Data: PubChem BioAssay AID2685 (National Center for Advancing Translational Sciences (NCATS), 2010)
This is one part of the list. Further columns of the screen follow, without active or inactive calls. Most of these compounds were active or inconclusive in the main read-out, so they are no random draw. The note in brackets gives the kind of curve behind each potency; many fits are weak.

Test: qHTS Assay for Lipid Storage Modulators in Drosophila S3 Cells;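 as to cell number change: cells counted by Cell Tracker Red CMTPX staining in the red channel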
Conditions: BODIPY lipid droplet fluorescence, 18-24 h; for cell number change: measured here: cell count max response, cells fed with added oleic acid
Method in brief: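 Drosophila S3 cells loaded with oleic acid (400 uM, as added) and compounds at several concentrations; lipid droplets imaged by 488-nm laser-scanning cytometry, 500–530 nm intensity and object ratio to cell channel. Percent activity normalized to 20 uM Triacsin C.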

[1] = measured here: cell number channel AC50, cells fed with added oleic acid
[2] = measured here: lipid fluorescence (Fed channel) AC50, cells fed with added oleic acid

CC(=O)Cn1ncc(N(C)Cc2ccccc2)c(Cl)c1=O
cell number change: 18.4%

Cc1ccccc1NC(=O)CSc1nc(N)c2c3c(sc2n1)CSC(C)(C)C3
cell number change: -16.5%

Cn1nc(Oc2ncc(C(F)(F)F)cc2Cl)cc1C(F)(F)F
cell number change: -41.9%
AC50 [1]: 9.2 µM [falling, partial curve, poor fit]
AC50 [2]: 0.58 µM [falling, full curve]

Clc1ccc(-n2cc(-c3ccc(Br)cc3)[n+]3c2CCCCC3)cc1
cell number change: -4.91%
AC50 [1]: 0.164 µM [rising, full curve, poor fit]

Cc1cc(=O)[nH]c2c3ccccc3nn12
cell number change: -45.2%
AC50 [1]: 16.4 µM [falling, partial curve]

CCCOc1cccc(/C=N/NC(=O)c2csc(C)c2C)c1
cell number change: 3.83%
AC50 [2]: 29.1 µM [rising, single point]

Cc1c(C2(O)CCCCC2)[nH]c2cnccc12
cell number change: -21.2%
AC50 [2]: 1.84 µM [rising, partial curve, poor fit]

O=C(Nc1ccncc1)c1cccc(S(=O)(=O)N2CCc3ccccc32)c1
AC50 [1]: 6.51 µM [rising, partial curve, poor fit]

O=C1CC(c2ccco2)CC(O)=C1C=Nc1cc(Cl)cc(Cl)c1 (configuration not stated)
AC50 [2]: 23.1 µM [falling, partial curve]

COc1ccc(N2CCCC2=N)c(OC)c1
cell number change: 10.9%
AC50 [2]: 0.00461 µM [falling, full curve, poor fit]

Cn1c(=O)oc2cc(S(=O)(=O)N3CCC(C(=O)Nc4ccc(OC(F)(F)F)cc4)CC3)ccc21
AC50 [2]: 6.51 µM [rising, partial curve, poor fit]

S=c1nccc(-c2ccc3c(c2)CCO3)[nH]1
cell number change: 4.83%
AC50 [2]: 6.51 µM [rising, single point]

CC(=O)c1cccc(S(=O)(=O)N2CCC(c3nc4ccccc4[nH]3)CC2)c1
cell number change: 5.65%
AC50 [2]: 0.58 µM [rising, single point]

Cc1ccnc(SCC(=O)N2CCc3ccccc32)n1
cell number change: 5.13%
AC50 [1]: 0.058 µM [rising, full curve, poor fit]
AC50 [2]: 0.116 µM [rising, single point]

CSc1ccccc1NC(=O)c1cc(C2CC2)on1
cell number change: 29.5%

CCC(=O)N(C)CCc1cc2c(c(OC)c1/C=N/Nc1ccc(C(=O)O)cc1)OCO2
cell number change: 21.4%
AC50 [2]: 0.58 µM [rising, full curve]

O=C(CNC(=O)c1ccc(Cl)cc1Cl)OCC(=O)N1CCCC1=O
cell number change: -0.453%
AC50 [2]: 29.1 µM [rising, single point]

O=C(O)CCn1cc(/C=N/O)c(-c2cccc([N+](=O)[O-])c2)n1
cell number change: 22.5%
AC50 [1]: 6.51 µM [rising, single point]

CC(C)n1c(/C=C/[C@H](O)C[C@H](O)CC(=O)O)c(-c2ccc(F)cc2)c2ccccc21
cell number change: -18.9%
AC50 [2]: 6.51 µM [falling, single point]

COc1ccc2c(C)cc(SCC(=O)N(C)C3CCS(=O)(=O)C3)nc2c1 (configuration not stated)
cell number change: 68.3%
AC50 [1]: 5.17 µM [rising, full curve]
AC50 [2]: 0.517 µM [rising, full curve]

COc1cccc(NC(=O)CN(c2ccc(C)cc2)S(=O)(=O)c2c(C)nn(C)c2C)c1
cell number change: 3.04%

CCCCn1c(SCC(=O)Nc2cc(C(F)(F)F)ccc2Cl)nnc1C(CC)N(C)C (configuration not stated)
cell number change: -11.1%
AC50 [1]: 0.103 µM [rising, full curve, poor fit]
AC50 [2]: 0.116 µM [rising, full curve, poor fit]

CCn1c(C(=O)NC2CCC(C)CC2)cc2sccc21 (configuration not stated)
cell number change: 5.85%
AC50 [2]: 6.51 µM [rising, partial curve]

O=C(NCCCNC(=O)c1ccccc1Cl)c1cnccn1
cell number change: 0.901%
AC50 [2]: 0.164 µM [rising, full curve]

CC1=C([N+](=O)[O-])C(c2ccccc2)C2=C(N1)c1ccccc1C2=O (configuration not stated)
cell number change: 48.4%
AC50 [1]: 0.58 µM [rising, full curve]
AC50 [2]: 0.13 µM [rising, full curve, poor fit]

CCOc1cc(Br)c(C(=O)O)cc1OC
cell number change: -29.8%

O=C(CCOc1cccc(Br)c1)NNC(=O)COc1ccc(F)cc1
cell number change: 47.5%
AC50 [1]: 16.4 µM [rising, single point]

Cc1ccc(NCCc2ccc(C)nc2)cc1
cell number change: 230%
AC50 [1]: 20.6 µM [rising, partial curve]
AC50 [2]: 29.1 µM [rising, single point]

O=S(=O)(Nc1ccc(-n2cnnn2)cc1)c1ccccc1F
cell number change: -11%
AC50 [1]: 6.51 µM [falling, single point]
AC50 [2]: 4.11 µM [falling, single point]

O=C(Nc1c(C(=O)N2CCOCC2)cnn1-c1ccccc1)c1ccccc1
cell number change: 8.71%

COc1ccccc1C(=O)NCCC(=O)Nc1cccc(S(=O)(=O)N2CCCC2)c1
cell number change: 22%

CN(C)c1nc(C(=O)NN)nc(N(C)C)n1
AC50 [1]: 1.84 µM [rising, partial curve, poor fit]

COc1ccc(C2c3c(oc4ccc(C)cc4c3=O)C(=O)N2c2cc(C)ccn2)cc1OC (configuration not stated)
AC50 [1]: 1.03 µM [rising, partial curve]

COc1ccc(CCC(=O)NCCc2ccc(Cl)cc2)cc1
cell number change: 9.52%
AC50 [2]: 6.51 µM [falling, single point]

COc1ccc(C)cc1S(=O)(=O)N(C)CC(=O)NCc1ccco1
cell number change: -4.59%
AC50 [2]: 9.2 µM [rising, single point]

COCCCNC(=O)c1ccc(NC(C)=O)cc1
cell number change: 4.52%
AC50 [2]: 0.731 µM [rising, single point]

O=C(O)Cc1ccc(C(=O)c2ccc(Cl)cc2)s1
cell number change: -8.79%
AC50 [2]: 29.1 µM [falling, single point]

O=C(NCC1CCCO1)C(=O)N/N=C/c1c(F)cccc1Cl (configuration not stated)
cell number change: 10.3%

N/C(=N\OC(=O)CCCOc1ccccc1)c1ccccn1
AC50 [1]: 6.51 µM [falling, single point]
AC50 [2]: 6.51 µM [falling, single point]

NC(=S)N/N=C/c1cccc(Br)c1
cell number change: -11.4%
AC50 [1]: 0.82 µM [falling, full curve]
AC50 [2]: 0.411 µM [falling, partial curve, poor fit]

O=c1c2ccccc2ncn1-c1cccc(Br)c1
cell number change: -9.56%
AC50 [2]: 0.517 µM [rising, full curve, poor fit]

O=C(CNCCc1ccc(Cl)cc1)Nc1ccc(C(=O)N2CCCCC2)cc1
cell number change: -5.65%
AC50 [2]: 29.1 µM [falling, partial curve, poor fit]

CC(O/N=C/c1ccccc1OC(F)F)C(=O)Nc1cccc(S(=O)(=O)N2CCOCC2)c1 (configuration not stated)
cell number change: -14%

O=C(CC1SC(=NCc2ccccc2)NC1=O)Nc1ccccc1 (configuration not stated)
cell number change: 0.574%
AC50 [1]: 6.51 µM [rising, single point]

CCn1c(=O)c(=O)[nH]c2c(=O)oc3ccc(S(=O)(=O)Nc4ccccc4)cc3c21
AC50 [2]: 10.3 µM [falling, partial curve]

CCOc1ccc(CCNC(=O)COC(=O)Cn2cnc3c2c(=O)n(C)c(=O)n3C)cc1OCC
cell number change: -25%
AC50 [1]: 6.51 µM [rising, single point]

Clc1ccc(Oc2ncnc3oc(-c4ccccc4)cc23)cc1
cell number change: 10.3%
AC50 [2]: 29.1 µM [falling, single point]

COc1cc(C(=O)OC(C)CN2CCN(C)CC2)cc(OC)c1OC (configuration not stated)
cell number change: -20%
AC50 [1]: 2.91 µM [falling, full curve, poor fit]
AC50 [2]: 14.6 µM [rising, partial curve]

Cc1ccc(CN2CC(C(=O)N(C)CC(=O)Nc3cccc(F)c3)CC2=O)cc1 (configuration not stated)
cell number change: -3.84%
AC50 [2]: 29.1 µM [rising, single point]

Cc1ccc(C(=O)CC2(O)C(=O)N(CN3CCOCC3)c3ccccc32)cc1 (configuration not stated)
AC50 [1]: 5.17 µM [falling, partial curve]
AC50 [2]: 4.11 µM [falling, partial curve]

C=CCn1c(CC(=O)Nc2cccc(OC)c2)nnc1SCC(=O)NC1CCCCC1
cell number change: 71.6%
AC50 [1]: 13 µM [rising, partial curve]
AC50 [2]: 29.1 µM [rising, single point]

O=C(NCCC1CCCCN1S(=O)(=O)c1ccccc1)C(=O)Nc1ccc(F)cc1 (configuration not stated)
cell number change: 3.23%
AC50 [2]: 1.84 µM [falling, partial curve]

Clc1ccc(/C=N/Nc2ncnc3nc[nH]c23)cc1
cell number change: 8.3%
AC50 [2]: 14.6 µM [rising, partial curve]

CC(C)c1ccc2nc3sc(C(=O)N4CCc5ccccc5C4)c(N)c3cc2c1
cell number change: -20.7%

COc1ccc(-c2cc(C)nc(SCc3cccc(C(=O)O)c3)n2)cc1
cell number change: 9.94%
AC50 [2]: 0.146 µM [falling, full curve]

Cc1cccc(NC(=O)COC(=O)Cc2cccs2)c1C
cell number change: 30.6%
AC50 [1]: 32.6 µM [rising, single point]

CCOc1ccc(CNC(=O)CCC(=O)N2Cc3cccc(OC)c3Oc3ncccc32)cc1
cell number change: -24.9%

COc1ccc(CCN(C)C(=O)C(CCSC)NC(=O)c2ccco2)cc1OC (configuration not stated)
AC50 [2]: 6.51 µM [falling, single point]

CCOc1ccc(N(CC(=O)O)S(=O)(=O)c2cccnc2)cc1
cell number change: 19.3%
AC50 [2]: 0.92 µM [rising, full curve, poor fit]

O=C(O)C1=NOC(CNc2ncc(C(F)(F)F)cc2Cl)C1 (configuration not stated)
cell number change: 102%
AC50 [1]: 29.1 µM [rising, single point]

Cc1nc(-c2ccc(C(=O)O)cc2)cs1
cell number change: 30.1%
AC50 [1]: 0.00411 µM [rising, full curve, poor fit]

Cc1ccc2nc(-c3ccncc3)cc(C(=O)Nc3ccc4c(c3)OCCO4)c2c1
cell number change: -35.4%
AC50 [1]: 20.6 µM [falling, single point]
AC50 [2]: 29.1 µM [falling, single point]
